From the supplement of paper PMC11006884
Only a part is listed here, and it is no random draw. The data scatter; read single values as rough.

Compound: COC(=O)/C=C/c1ccccc1 [methyl cinnamate]
Experiment: log2 ratio of iodoacetamide-alkyne labeling of the cysteine site, DMSO over compound (competition); higher = stronger covalent engagement of the cysteine by the compound, active = 1 or more
Conditions: 500 µM; treatment time 1 h; system: HEK293T cell lysate
How it was run: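 HEK293T lysate at 2 mg/mL was treated with vehicle or electrophile (500 µM) for 1 h at ambient temperature, then labelled with iodoacetamide alkyne (1 h), clicked to sCIP-TMT reagents, pooled, digested with trypsin overnight at 37 °C, enriched on streptavidin and eluted with acid. Peptides were analysed by Orbitrap Eclipse LC-MS/MS with FAIMS and quantified in FragPipe, using duplicate channels and three replicates, with cysteines quantified in only one replicate excluded. The log2 competition ratio for each cysteine is the mean control-channel reporter intensity divided by the mean compound-channel reporter intensity.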

Target	log2 ratio of iodoacetamide-alkyne labeling
INTS4 C109 (UniProt Q96HW7)	inactive: 0.127
RNF2 C179 (UniProt Q99496)	inactive: 0.134
CCT7 C450 (UniProt Q99832)	inactive: 0.19
ELAC2 C609 (UniProt Q9BQ52)	inactive: 0.128
CRBN C441 (UniProt Q96SW2)	inactive: -0.00577
VPS35 C653 (UniProt Q96QK1)	inactive: 0.167
UniProt Q96MG7_C283	inactive: 0.174
SCLT1 C38 (UniProt Q96NL6)	inactive: -0.437
SCYL1 C241 (UniProt Q96KG9)	inactive: 0.012
PPP1R10 C48 (UniProt Q96QC0)	inactive: 0.175
MARK4 C459 (UniProt Q96L34)	inactive: 0.117
TUBA1C C347 (UniProt Q9BQE3)	inactive: 0.179
RBM14 C108 (UniProt Q96PK6)	inactive: 0.0314
POP1 C666 (UniProt Q99575)	inactive: -0.0374
UniProt Q96JM3_C787	inactive: -0.00144
SNX27 C247 (UniProt Q96L92)	inactive: 0.282
MYBBP1A C1096 (UniProt Q9BQG0)	inactive: 0.266
NSD1 C1689 (UniProt Q96L73)	inactive: -0.0767
PIP5K1A C480 (UniProt Q99755)	inactive: 0.184

Not a retest: entries from further up.
Target	log2 ratio of iodoacetamide-alkyne labeling
NSD1 C1689 (UniProt Q96L73)	inactive: -0.0767
PIP5K1A C480 (UniProt Q99755)	inactive: 0.184

The list goes on:

Target	log2 ratio of iodoacetamide-alkyne labeling
OSBPL9 C230 (UniProt Q96SU4)	inactive: 0.743
MARK4 C216 (UniProt Q96L34)	inactive: 0.39
UniProt Q99590_C346	inactive: 0.0194
NCAPG C751 (UniProt Q9BPX3)	inactive: 0.601
RSF1 C404 (UniProt Q96T23)	inactive: 0.28
SMG1 C1373 (UniProt Q96Q15)	inactive: 0.218
MYBBP1A C614 (UniProt Q9BQG0)	inactive: -0.326
SEC22A C111 (UniProt Q96IW7)	inactive: -0.0422
SPEN C1066 (UniProt Q96T58)	inactive: 0.059
NSD1 C1312 (UniProt Q96L73)	inactive: 0.257
TUBA1C C295 (UniProt Q9BQE3)	inactive: 0.153
RBM15 C785 (UniProt Q96T37)	inactive: 0.238
CPNE1 C30 (UniProt Q99829)	inactive: -0.221
DOCK7 C1944 (UniProt Q96N67)	inactive: 0.233
USP47 C856 (UniProt Q96K76)	inactive: 0.351
PARK7 C53 (UniProt Q99497)	inactive: -0.276
UniProt Q96TA1_C154	inactive: 0.12
TBCB C83 (UniProt Q99426)	inactive: 0.102
